In publication PMC6158461:
These are yes or no findings as the source states them, for the method shown. In cells and extracts the contact can be indirect. Binding calls can cover weak binding; strength is not graded here. Tags and fused reporters may be left off the sequences shown.

Amino acid sequences for entries named in this document (tags omitted). A change or cut given only in a name is not applied to a line headed by its entry.
UniProt Q9HYR1: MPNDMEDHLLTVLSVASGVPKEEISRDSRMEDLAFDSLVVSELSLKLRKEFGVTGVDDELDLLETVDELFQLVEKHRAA

Molecular target: T1, His-tagged KatA (from plasmid pEXHTB-katA) (P. aeruginosa) (UniProt O52762)
T1 sequence: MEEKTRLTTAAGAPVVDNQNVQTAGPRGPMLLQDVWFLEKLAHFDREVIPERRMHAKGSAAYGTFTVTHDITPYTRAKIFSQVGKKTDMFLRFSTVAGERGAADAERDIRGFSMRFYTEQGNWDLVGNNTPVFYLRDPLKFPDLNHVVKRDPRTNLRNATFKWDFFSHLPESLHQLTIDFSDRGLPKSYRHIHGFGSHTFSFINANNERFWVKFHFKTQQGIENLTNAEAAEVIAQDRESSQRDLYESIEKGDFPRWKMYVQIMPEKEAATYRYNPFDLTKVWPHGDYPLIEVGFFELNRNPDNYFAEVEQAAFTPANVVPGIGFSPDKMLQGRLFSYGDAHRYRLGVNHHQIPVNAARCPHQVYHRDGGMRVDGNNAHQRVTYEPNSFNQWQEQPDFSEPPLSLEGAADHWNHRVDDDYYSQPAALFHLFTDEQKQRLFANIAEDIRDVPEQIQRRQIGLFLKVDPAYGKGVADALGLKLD
Assay: pull-down; reverse pull-down: His-KatA expressed from pEXHTB-katA in strain CW21 (Acp3-SPA); lysate over Ni2+-NTA agarose; Acp3 in the eluate detected by anti-FLAG M2 western blot; empty vector pEXHTB as control

Question: With “Acp3 with C-terminal SPA tag (strain CW21) (from UniProt Q9HYR1)” as the substance, how does the binding read?
Answer: Its binding is “binds”.
